Results from PubChem BioAssay AID540276 (National Center for Advancing Translational Sciences (NCATS), 2011).
The campaign covered roughly 300,000 compounds. About 5,400 (1.8%) were called active. This list was built around the results that the source calls inconclusive (neither active nor inactive); the mix of calls is not that of the screen. Calls come from the whole dose curve; tested in HEK293 cells. Potencies beside an inconclusive call are fits to weak or partial responses and may not hold up.

Test: qHTS for inhibitors of binding or entry into cells for Marburg Virus
Conditions: Marburg virus pseudotyped entry inhibition, cell reporter; series mostly up to 37.8 µM
Potency is the fitted concentration of half-maximal effect.

Compound | Potency
O=C(CN1C2CCC1CC(NC(=O)NC1CCCCC1)C2)NC1CC1 (stereo not given) | inconclusive: 7.3 µM [activator, partial curve, poor fit]
COc1ccccc1-c1cc(C(F)(F)F)nc(N2CCOCC2)n1 | inconclusive: 14.6 µM [inhibitor, partial curve, poor fit]
O=C(CCNC(=O)c1ccccc1)NC1CCCc2ccccc21 (stereo not given) | inconclusive: 35.5 µM [inhibitor, single point]
COc1ccc(NCc2nc3ccccc3n2CCOc2ccccc2C)cc1 | inconclusive: 12.6 µM [activator, single point]
COc1ccc(S(=O)(=O)N2CCCOC2CNC(=O)C(=O)NCCc2ccco2)cc1C (stereo not given) | inconclusive: 3.98 µM [inhibitor, single point]
COc1ccc(OCCOC(=O)c2[nH]c(C)c(C(C)=O)c2C)cc1 | inconclusive: 31.6 µM [inhibitor, partial curve, poor fit]
COc1ccc(OC)c(-n2c(=O)[nH]c3cc(C(=O)NCCc4ccc(OC)c(OC)c4)ccc3c2=O)c1 | inactive
COc1ccc(C(=O)Nc2ccc(Cn3ccnc3)cc2)cc1OC | inactive
S=c1ncc2[nH]c(=S)[nH]c2[nH]1 | inconclusive: 35.5 µM [activator, single point]
CC(C)c1ccc(/C=C/C(=O)CCC(=O)O)cc1 | inconclusive: 10 µM [inhibitor, partial curve, poor fit]
CC(C)(C)c1ccc(OCc2ccc(C(=O)N/N=C3\CC4CC=CC34)cc2)cc1 (stereo not given) | inactive
Cc1nc(Nc2ccc(S(N)(=O)=O)cc2)sc1C(=O)Nc1ccccc1 | inactive
N#Cc1c(SCc2ccccc2)nc(N2CCOCC2)c2c1CCCC2 | inconclusive: 22.4 µM [inhibitor, single point]
CCCC(=O)N(c1ccc2oc3c(c2c1)CCCC3)S(=O)(=O)c1ccc(CC)cc1 | inconclusive: 6.31 µM [inhibitor, partial curve, poor fit]
Cc1cc(N2CCN(C)CC2)nc2ccc(NC(=O)CCC(=O)N3CCN(c4ccc([N+](=O)[O-])cc4)CC3)cc12 | inconclusive: 20 µM [inhibitor, single point]
N/C(=N\OC(=O)Cc1cccc2ccccc12)c1ccccn1 | inconclusive: 35.5 µM [inhibitor, single point]
Cc1nc(C(=O)Nc2ccccc2)sc1C(=O)Nc1ccccc1 | inconclusive: 5.01 µM [activator, full curve, poor fit]
Cc1cc(Nc2ccccc2)n(C(=O)c2ccc(N)cc2)n1 | inconclusive: 1.78 µM [activator, partial curve, poor fit]
Cc1cccc(NC(=S)NC2CCSc3ccccc32)c1 (stereo not given) | inconclusive: 25.1 µM [inhibitor, single point]
CCc1nnc(NS(=O)(=O)c2ccc(NC(=S)NC(=O)/C=C/c3ccc(F)cc3)cc2)s1 | inactive
CCOc1ccc(C(C)NC(=O)c2ccccc2OCc2c(C)noc2C)cc1OCC (stereo not given) | inconclusive: 6.31 µM [inhibitor, full curve]
CCCN(Cc1ccccc1)C(=S)Nc1ccc(SC(F)F)cc1 | inconclusive: 35.5 µM [inhibitor, single point]

Compound | Potency
COc1ccc(N(C)C(=O)Nc2ccc3nsnc3c2)cc1 | inconclusive: 35.5 µM [inhibitor, single point]
CC(C)(C)OC(=O)NNc1c2ccccc2nc2ccccc12 | inconclusive: 3.55 µM [inhibitor, full curve, poor fit]
Cc1ccc(OCc2cc(=O)n3c4c(sc3n2)CCCC4)c(C)c1 | inactive
Cc1ccc(S(=O)(=O)N2CCC(C(=O)NNC(=O)c3ccc(F)cc3)CC2)cc1 | inconclusive: 12.6 µM [inhibitor, single point]
COc1cccc(OCc2nc3ccccc3n2Cc2ccccc2)c1 | inconclusive: 31.6 µM [inhibitor, single point]
CC1CC(C)CN(C(=O)c2ccc3c(c2NCCO)C(=O)c2ccccc2C3=O)C1 (stereo not given) | active: 10 µM
CN1C(=O)C2CN(CCc3ccccc3)CNC2N(C)C1=O (stereo not given) | inconclusive: 7.08 µM [inhibitor, partial curve, poor fit]
CCOC(=O)c1c(NC(=O)CN2CCN(C(=O)c3ccco3)CC2)sc2c1CCCC2 | inactive
COc1ccccc1NC(=O)C(=O)NCCC1CCCCN1S(=O)(=O)c1ccccc1 (stereo not given) | inconclusive: 3.98 µM [inhibitor, full curve, poor fit]
FC(F)(F)c1cnc(N/N=C/c2ccncc2)c(Cl)c1 | inactive
CC1=C2C3OC(=O)C(C)[C@@H]3CC[C@](C)(O)C2C2C3C4C5(C12)[C@H]1OC(=O)[C@@H](C)C1CC[C@]4(C)O[C@]5(C)[C@@H]3O (stereo not given in full) | inactive
CCC(C)Sc1cc(C)c(C#N)c2nc3ccccc3n12 (stereo not given) | inactive
O=C(COC(=O)c1cc([N+](=O)[O-])ccc1N1CCOCC1)c1ccc(Br)cc1 | inconclusive: 15.8 µM [inhibitor, single point]
CCCCOc1ccc(C(=O)NCC2(c3ccccc3)CCOCC2)cc1 | inactive
COc1ccccc1CN(C)C(=O)c1cccc(S(=O)(=O)N2CCN(Cc3ccccc3)CC2)c1 | inconclusive: 3.16 µM [inhibitor, single point]
COc1ccccc1NC(=O)C(C)OC(=O)COc1cccc2c1OC(C)(C)C2 (stereo not given) | inconclusive: 6.31 µM [inhibitor, single point]
CC1=C(C(=O)Nc2ccc(Cl)cc2)C(c2cccs2)n2nc(SCc3cccc(Cl)c3)nc2N1 (stereo not given) | inactive
CC(NC(=O)c1cc2cc([N+](=O)[O-])ccc2oc1=O)C1CCCO1 (stereo not given) | inconclusive: 3.16 µM [inhibitor, single point]
CCOc1ccc(CC(=O)Nc2c(C(=O)c3ccc(Cl)cc3)oc3ccccc23)cc1OCC | inconclusive: 3.55 µM [inhibitor, partial curve, poor fit]
c1ccc2c(CN3CCN(C4CCCCC4)CC3)c[nH]c2c1 | inconclusive: 35.5 µM [inhibitor, single point]
CC(=O)Nc1cccc(Oc2cc(C#N)c(C#N)cc2N2CCCCCC2)c1 | inconclusive: 22.4 µM [inhibitor, partial curve, poor fit]
COc1cc(CN2CCC(C(N)=O)CC2)ccc1OCc1ccccc1 | inconclusive: 2.51 µM [activator, single point]

Copied from the list:
Potency with CC1=C(C(=O)Nc2ccc(Cl)cc2)C(c2cccs2)n2nc(SCc3cccc(Cl)c3)nc2N1 (stereo not given) is entered as inactive
Potency with CN1C(=O)C2CN(CCc3ccccc3)CNC2N(C)C1=O (stereo not given) is entered as inconclusive: 7.08 µM [inhibitor, partial curve, poor fit]
Potency with COc1cccc(OCc2nc3ccccc3n2Cc2ccccc2)c1 is entered as inconclusive: 31.6 µM [inhibitor, single point]

The list continues:

Compound | Potency
Cc1cc(C)c2c(=O)n(CC(=O)Nc3ccc(Cl)cc3)sc2n1 | inconclusive: 35.5 µM [inhibitor, single point]
O=C(Nc1nc(-c2ccc(Cl)cc2Cl)cs1)C1CCCO1 (stereo not given) | inconclusive: 1.26 µM [activator, partial curve, poor fit]
Fc1ccccc1Nc1nc2ccccc2o1 | inconclusive: 17.8 µM [inhibitor, partial curve, poor fit]
COc1cccc(/C=N/n2cnc3cc(C)c(C)cc32)c1OC | inactive
CCOC(=O)c1ccc(NC(=S)Nc2cccc(C)n2)cc1 | inconclusive: 29.1 µM [inhibitor, partial curve, poor fit]
Cc1cc(Cl)ccc1NC(=S)NCCc1ccc(Cl)cc1 | inconclusive: 14.1 µM [inhibitor, single point]
Cc1cccc(C(=O)NC2CCN(CC(=O)Nc3ccccc3Cl)CC2)c1 | inconclusive: 35.5 µM [inhibitor, single point]
CC1CC(C)(C)N(C(=O)NC2CCCCC2)c2ccccc21 (stereo not given) | inconclusive: 31.6 µM [activator, single point]
CCC(C)c1ccccc1N1CC(C(=O)N2CCN(S(=O)(=O)c3cccc([N+](=O)[O-])c3)CC2)CC1=O (stereo not given) | inactive
Cc1ccc(N(CCC#N)C(=O)CN2C(=O)NC(Cc3ccccc3)C2=O)cc1 (stereo not given) | inconclusive: 3.55 µM [activator, partial curve]
Cc1ccc(C)c(N2CCN(c3nnnn3-c3ccccc3)CC2)c1 | inconclusive: 35.5 µM [inhibitor, single point]
Cc1ccc(C2(C)NC(=O)N(CC(=O)NCc3ccccc3Cl)C2=O)cc1 (stereo not given) | inconclusive: 4.47 µM [inhibitor, full curve, poor fit]
CCOC(=O)C1=NN(c2ccc(C)cc2)C2(S1)SC(C(C)=O)=C(C)N2c1ccccc1 (stereo not given) | inconclusive: 9.2 µM [inhibitor, partial curve, poor fit]
CCN(CC)c1ccc(NC(=O)CCS(=O)(=O)c2cccc3nsnc23)c(C)c1 | inconclusive: 5.01 µM [activator, single point]
COc1ccc(-c2nnn(CC(=O)N(CCCO)C(C(=O)NC3CCCC3)c3ccncc3)n2)cc1 (stereo not given) | inconclusive: 0.282 µM [activator, partial curve, poor fit]
Fc1ccccc1/C=N/Nc1ncnc2ccccc12 | inconclusive: 1.58 µM [activator, partial curve, poor fit]
CCCCCC(=O)Nc1ccc(C(=O)CN2C(=O)NC3(CCCCCC3)C2=O)cc1 | inactive
Cc1ccc(NC(=O)c2cc(F)c(F)cc2Cl)nc1 | inconclusive: 3.16 µM [activator, partial curve, poor fit]
CS(=O)(=O)N(Cc1ccccc1)c1ccc(C(=O)Nc2ccc3c(c2)OCO3)cc1 | inconclusive: 8.2 µM [inhibitor, partial curve, poor fit]
COc1ccc2c(c1)Cc1sc(NC(=O)c3ccccc3)nc1-2 | inactive
Cc1ccc(-c2csc(NC(=O)CSC3=NCCS3)n2)cc1 | inactive
